Test results reported in PMC9069051.
These are yes or no findings as the source states them, for the method shown. In cells and extracts the contact can be indirect. These calls come from enrichment with a bait or labelling near it, and not all partners need be listed. Sequences can lack the tags named with a protein.

By UniProt entry, the sequences of proteins in these tests, tags left out. Residues count along the entry.
UniProt P49023: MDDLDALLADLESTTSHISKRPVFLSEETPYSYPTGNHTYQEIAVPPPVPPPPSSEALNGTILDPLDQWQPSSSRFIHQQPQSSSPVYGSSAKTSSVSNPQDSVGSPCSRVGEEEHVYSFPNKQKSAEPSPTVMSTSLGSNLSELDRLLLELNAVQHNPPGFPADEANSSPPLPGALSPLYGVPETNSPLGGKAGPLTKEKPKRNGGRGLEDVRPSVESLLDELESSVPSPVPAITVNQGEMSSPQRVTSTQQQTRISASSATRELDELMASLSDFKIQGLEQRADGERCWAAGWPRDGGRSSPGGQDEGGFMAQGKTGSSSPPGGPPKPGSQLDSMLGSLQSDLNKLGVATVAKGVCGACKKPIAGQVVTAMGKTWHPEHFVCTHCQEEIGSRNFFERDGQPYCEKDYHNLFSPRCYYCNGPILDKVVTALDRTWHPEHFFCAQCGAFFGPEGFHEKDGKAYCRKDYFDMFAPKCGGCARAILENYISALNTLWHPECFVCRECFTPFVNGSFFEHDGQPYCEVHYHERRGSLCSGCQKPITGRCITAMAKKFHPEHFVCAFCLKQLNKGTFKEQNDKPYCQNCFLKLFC
UniProt P07355: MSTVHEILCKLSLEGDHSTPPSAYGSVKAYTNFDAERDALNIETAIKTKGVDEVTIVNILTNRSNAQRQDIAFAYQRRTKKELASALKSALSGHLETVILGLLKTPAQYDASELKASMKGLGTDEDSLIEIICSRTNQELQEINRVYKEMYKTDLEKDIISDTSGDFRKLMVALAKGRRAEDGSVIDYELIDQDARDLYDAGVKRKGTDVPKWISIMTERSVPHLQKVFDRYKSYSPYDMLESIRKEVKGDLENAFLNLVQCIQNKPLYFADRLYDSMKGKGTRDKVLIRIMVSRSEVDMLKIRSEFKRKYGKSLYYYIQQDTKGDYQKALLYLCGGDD
UniProt Q06481, residues 32-763: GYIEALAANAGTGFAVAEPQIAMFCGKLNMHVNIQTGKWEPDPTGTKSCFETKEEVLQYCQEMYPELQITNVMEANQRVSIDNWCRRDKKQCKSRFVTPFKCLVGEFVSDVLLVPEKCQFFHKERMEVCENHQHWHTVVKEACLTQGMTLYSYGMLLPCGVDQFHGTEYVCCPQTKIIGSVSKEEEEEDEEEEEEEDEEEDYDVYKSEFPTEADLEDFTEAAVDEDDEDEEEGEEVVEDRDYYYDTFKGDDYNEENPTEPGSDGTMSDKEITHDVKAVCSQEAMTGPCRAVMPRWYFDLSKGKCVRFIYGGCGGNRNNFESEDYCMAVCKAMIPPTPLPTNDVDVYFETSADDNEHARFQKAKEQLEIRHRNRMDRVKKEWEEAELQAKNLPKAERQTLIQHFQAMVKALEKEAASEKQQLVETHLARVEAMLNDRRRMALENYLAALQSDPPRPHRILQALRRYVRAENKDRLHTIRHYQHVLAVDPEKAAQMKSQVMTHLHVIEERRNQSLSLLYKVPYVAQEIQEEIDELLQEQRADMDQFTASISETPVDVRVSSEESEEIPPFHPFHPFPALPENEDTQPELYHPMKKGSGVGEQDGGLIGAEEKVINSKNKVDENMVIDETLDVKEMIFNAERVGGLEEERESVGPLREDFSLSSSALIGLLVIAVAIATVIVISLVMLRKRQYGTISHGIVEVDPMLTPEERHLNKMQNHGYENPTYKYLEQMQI
UniProt P10586, residues 30-1907: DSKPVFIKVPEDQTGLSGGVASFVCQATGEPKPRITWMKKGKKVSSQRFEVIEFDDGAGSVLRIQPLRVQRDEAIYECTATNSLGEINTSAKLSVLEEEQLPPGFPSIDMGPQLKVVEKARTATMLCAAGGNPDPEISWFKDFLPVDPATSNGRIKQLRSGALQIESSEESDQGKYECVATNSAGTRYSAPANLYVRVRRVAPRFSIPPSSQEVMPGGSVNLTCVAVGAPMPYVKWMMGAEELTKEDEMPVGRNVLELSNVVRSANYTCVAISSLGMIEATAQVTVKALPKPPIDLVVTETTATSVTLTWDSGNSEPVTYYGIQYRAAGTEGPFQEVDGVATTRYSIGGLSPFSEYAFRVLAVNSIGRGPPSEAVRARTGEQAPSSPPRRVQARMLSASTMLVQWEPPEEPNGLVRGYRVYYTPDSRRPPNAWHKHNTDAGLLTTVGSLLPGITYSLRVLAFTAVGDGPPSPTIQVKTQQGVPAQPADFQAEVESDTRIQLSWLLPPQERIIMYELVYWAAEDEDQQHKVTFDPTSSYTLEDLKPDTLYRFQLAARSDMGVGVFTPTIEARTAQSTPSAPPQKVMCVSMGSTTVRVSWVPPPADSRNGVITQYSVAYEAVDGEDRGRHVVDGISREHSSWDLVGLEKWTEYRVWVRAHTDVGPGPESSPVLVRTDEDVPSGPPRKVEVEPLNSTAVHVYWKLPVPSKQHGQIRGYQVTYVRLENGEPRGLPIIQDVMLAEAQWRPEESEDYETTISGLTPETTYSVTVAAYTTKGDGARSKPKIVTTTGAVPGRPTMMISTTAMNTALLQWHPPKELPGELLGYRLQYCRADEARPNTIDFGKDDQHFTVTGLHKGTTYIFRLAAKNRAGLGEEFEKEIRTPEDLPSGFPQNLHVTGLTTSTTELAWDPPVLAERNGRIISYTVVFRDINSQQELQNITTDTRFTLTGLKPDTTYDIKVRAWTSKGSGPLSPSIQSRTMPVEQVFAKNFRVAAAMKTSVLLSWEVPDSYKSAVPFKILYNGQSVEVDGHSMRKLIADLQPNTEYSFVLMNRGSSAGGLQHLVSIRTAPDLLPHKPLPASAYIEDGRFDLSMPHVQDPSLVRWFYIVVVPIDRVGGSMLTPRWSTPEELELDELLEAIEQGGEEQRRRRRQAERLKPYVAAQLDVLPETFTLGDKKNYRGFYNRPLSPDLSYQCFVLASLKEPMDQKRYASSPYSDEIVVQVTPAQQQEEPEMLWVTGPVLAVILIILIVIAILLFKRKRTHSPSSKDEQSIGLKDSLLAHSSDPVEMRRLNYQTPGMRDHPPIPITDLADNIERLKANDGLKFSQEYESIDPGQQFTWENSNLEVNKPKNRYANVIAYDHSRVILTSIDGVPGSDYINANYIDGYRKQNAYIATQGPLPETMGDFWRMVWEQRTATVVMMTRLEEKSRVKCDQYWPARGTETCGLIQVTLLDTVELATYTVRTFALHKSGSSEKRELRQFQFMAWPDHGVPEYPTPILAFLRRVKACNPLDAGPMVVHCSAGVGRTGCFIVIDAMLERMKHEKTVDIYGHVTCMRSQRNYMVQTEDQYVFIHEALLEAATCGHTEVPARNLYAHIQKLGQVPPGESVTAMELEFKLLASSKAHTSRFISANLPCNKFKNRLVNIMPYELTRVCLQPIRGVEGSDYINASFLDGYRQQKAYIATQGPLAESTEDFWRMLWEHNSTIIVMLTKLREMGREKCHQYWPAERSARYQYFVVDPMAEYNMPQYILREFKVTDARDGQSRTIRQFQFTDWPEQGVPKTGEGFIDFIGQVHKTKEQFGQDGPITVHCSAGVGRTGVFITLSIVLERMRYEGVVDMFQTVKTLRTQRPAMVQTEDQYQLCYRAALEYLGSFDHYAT
UniProt O95819: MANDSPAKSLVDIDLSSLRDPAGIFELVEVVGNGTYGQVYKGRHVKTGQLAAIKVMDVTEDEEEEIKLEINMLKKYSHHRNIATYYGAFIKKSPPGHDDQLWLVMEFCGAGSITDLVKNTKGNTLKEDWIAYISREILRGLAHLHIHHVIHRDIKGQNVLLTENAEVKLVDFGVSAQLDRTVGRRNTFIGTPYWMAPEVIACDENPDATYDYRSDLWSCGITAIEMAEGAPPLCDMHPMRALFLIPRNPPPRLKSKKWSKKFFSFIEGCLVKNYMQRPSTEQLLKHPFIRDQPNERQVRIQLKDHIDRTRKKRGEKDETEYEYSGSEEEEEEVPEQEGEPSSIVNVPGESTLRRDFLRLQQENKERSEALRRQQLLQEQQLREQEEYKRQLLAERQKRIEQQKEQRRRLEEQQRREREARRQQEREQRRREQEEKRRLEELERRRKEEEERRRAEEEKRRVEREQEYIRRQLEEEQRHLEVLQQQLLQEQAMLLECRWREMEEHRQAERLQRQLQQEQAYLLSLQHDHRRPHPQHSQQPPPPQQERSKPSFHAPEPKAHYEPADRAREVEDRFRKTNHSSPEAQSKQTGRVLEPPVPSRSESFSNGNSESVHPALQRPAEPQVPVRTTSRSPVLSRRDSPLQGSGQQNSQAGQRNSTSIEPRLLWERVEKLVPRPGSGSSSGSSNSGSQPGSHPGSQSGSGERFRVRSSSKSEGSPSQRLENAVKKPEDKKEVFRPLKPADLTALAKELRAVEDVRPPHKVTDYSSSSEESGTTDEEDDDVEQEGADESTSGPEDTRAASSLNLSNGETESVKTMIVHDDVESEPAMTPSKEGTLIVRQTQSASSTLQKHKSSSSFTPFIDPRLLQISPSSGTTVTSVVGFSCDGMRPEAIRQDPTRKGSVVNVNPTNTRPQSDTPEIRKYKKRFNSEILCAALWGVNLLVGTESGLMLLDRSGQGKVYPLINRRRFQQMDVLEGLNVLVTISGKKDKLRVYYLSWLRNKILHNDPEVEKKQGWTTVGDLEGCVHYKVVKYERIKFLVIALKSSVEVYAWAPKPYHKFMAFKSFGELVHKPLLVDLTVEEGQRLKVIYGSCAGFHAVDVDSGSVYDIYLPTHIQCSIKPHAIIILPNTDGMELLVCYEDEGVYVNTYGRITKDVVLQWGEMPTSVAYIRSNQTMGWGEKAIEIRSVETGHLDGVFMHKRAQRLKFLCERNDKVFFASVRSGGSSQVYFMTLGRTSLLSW

B1: Extended synaptotagmin-2 (protein, UniProt A0FGR8 1-921)
chain: MTANRDAALSSHRHPGCAQRPRTPTFASSSQRRSAFGFDDGNFPGLGERSHAPGSRLGARRRAKTARGLRGHRQRGAGAGLSRPGSARAPSPPRPGGPENPGGVLSVELPGLLAQLARSFALLLPVYALGYLGLSFSWVLLALALLAWCRRSRGLKALRLCRALALLEDEERVVRLGVRACDLPAWVHFPDTERAEWLNKTVKHMWPFICQFIEKLFRETIEPAVRGANTHLSTFSFTKVDVGQQPLRINGVKVYTENVDKRQIILDLQISFVGNCEIDLEIKRYFCRAGVKSIQIHGTMRVILEPLIGDMPLVGALSIFFLRKPLLEINWTGLTNLLDVPGLNGLSDTIILDIISNYLVLPNRITVPLVSEVQIAQLRFPVPKGVLRIHFIEAQDLQGKDTYLKGLVKGKSDPYGIIRVGNQIFQSRVIKENLSPKWNEVYEALVYEHPGQELEIELFDEDPDKDDFLGSLMIDLIEVEKERLLDEWFTLDEVPKGKLHLRLEWLTLMPNASNLDKVLTDIKADKDQANDGLSSALLILYLDSARNLPSGKKISSNPNPVVQMSVGHKAQESKIRYKTNEPVWEENFTFFIHNPKRQDLEVEVRDEQHQCSLGNLKVPLSQLLTSEDMTVSQRFQLSNSGPNSTIKMKIALRVLHLEKRERPPDHQHSAQVKRPSVSKEGRKTSIKSHMSGSPGPGGSNTAPSTPVIGGSDKPGMEEKAQPPEAGPQGLHDLGRSSSSLLASPGHISVKEPTPSIASDISLPIATQELRQRLRQLENGTTLGQSPLGQIQLTIRHSSQRNKLIVVVHACRNLIAFSEDGSDPYVRMYLLPDKRRSGRRKTHVSKKTLNPVFDQSFDFSVSLPEVQRRTLDVAVKNSGGFLSKDKGLLGKVLVALASEELAKGWTQWYDLTEDGTRPQAMT
B2: FAS-associated factor 2 (protein, UniProt Q96CS3 1-445)
chain: MAAPEERDLTQEQTEKLLQFQDLTGIESMDQCRHTLEQHNWNIEAAVQDRLNEQEGVPSVFNPPPSRPLQVNTADHRIYSYVVSRPQPRGLLGWGYYLIMLPFRFTYYTILDIFRFALRFIRPDPRSRVTDPVGDIVSFMHSFEEKYGRAHPVFYQGTYSQALNDAKRELRFLLVYLHGDDHQDSDEFCRNTLCAPEVISLINTRMLFWACSTNKPEGYRVSQALRENTYPFLAMIMLKDRRMTVVGRLEGLIQPDDLINQLTFIMDANQTYLVSERLEREERNQTQVLRQQQDEAYLASLRADQEKERKKREERERKRRKEEEVQQQKLAEERRRQNLQEEKERKLECLPPEPSPDDPESVKIIFKLPNDSRVERRFHFSQSLTVIHDFLFSLKESPEKFQIEANFPRRVLPCIPSEEWPNPPTLQEAGLSHTEVLFVQDLTDE
B3: GDP-mannose 4,6 dehydratase (enzyme, UniProt O60547 1-372)
chain: MAHAPARCPSARGSGDGEMGKPRNVALITGITGQDGSYLAEFLLEKGYEVHGIVRRSSSFNTGRIEHLYKNPQAHIEGNMKLHYGDLTDSTCLVKIINEVKPTEIYNLGAQSHVKISFDLAEYTADVDGVGTLRLLDAVKTCGLINSVKFYQASTSELYGKVQEIPQKETTPFYPRSPYGAAKLYAYWIVVNFREAYNLFAVNGILFNHESPRRGANFVTRKISRSVAKIYLGQLECFSLGNLDAKRDWGHAKDYVEAMWLMLQNDEPEDFVIATGEVHSVREFVEKSFLHIGKTIVWEGKNENEVGRCKETGKVHVTVDLKYYRPTEVDFLQGDCTKAKQKLNWKPRVAFDELVREMVHADVELMRTNPNA
B4: Flotillin-1 (protein, UniProt O75955 1-427)
chain: MFFTCGPNEAMVVSGFCRSPPVMVAGGRVFVLPCIQQIQRISLNTLTLNVKSEKVYTRHGVPISVTGIAQVKIQGQNKEMLAAACQMFLGKTEAEIAHIALETLEGHQRAIMAHMTVEEIYKDRQKFSEQVFKVASSDLVNMGISVVSYTLKDIHDDQDYLHSLGKARTAQVQKDARIGEAEAKRDAGIREAKAKQEKVSAQYLSEIEMAKAQRDYELKKAAYDIEVNTRRAQADLAYQLQVAKTKQQIEEQRVQVQVVERAQQVAVQEQEIARREKELEARVRKPAEAERYKLERLAEAEKSQLIMQAEAEAASVRMRGEAEAFAIGARARAEAEQMAKKAEAFQLYQEAAQLDMLLEKLPQVAEEISGPLTSANKITLVSSGSGTMGAAKVTGEVLDILTRLPESVERLTGVSISQVNHKPLRTA
B5: SHC-transforming protein 1 (protein, UniProt P29353 1-583)
chain: MDLLPPKPKYNPLRNESLSSLEEGASGSTPPEELPSPSASSLGPILPPLPGDDSPTTLCSFFPRMSNLRLANPAGGRPGSKGEPGRAADDGEGIVGAAMPDSGPLPLLQDMNKLSGGGGRRTRVEGGQLGGEEWTRHGSFVNKPTRGWLHPNDKVMGPGVSYLVRYMGCVEVLQSMRALDFNTRTQVTREAISLVCEAVPGAKGATRRRKPCSRPLSSILGRSNLKFAGMPITLTVSTSSLNLMAADCKQIIANHHMQSISFASGGDPDTAEYVAYVAKDPVNQRACHILECPEGLAQDVISTIGQAFELRFKQYLRNPPKLVTPHDRMAGFDGSAWDEEEEEPPDHQYYNDFPGKEPPLGGVVDMRLREGAAPGAARPTAPNAQTPSHLGATLPVGQPVGGDPEVRKQMPPPPPCPGRELFDDPSYVNVQNLDKARQAVGGAGPPNPAINGSAPRDLFDMKPFEDALRVPPPPQSVSMAEQLRGEPWFHGKLSRREAEALLQLNGDFLVRESTTTPGQYVLTGLQSGQPKHLLLVDPEGVVRTKDHRFESVSHLISYHMDNHLPIISAGSELCLQQPVERKL
B6: Extended synaptotagmin-1 (protein, UniProt Q9BSJ8 1-1104)
chain: MERSPGEGPSPSPMDQPSAPSDPTDQPPAAHAKPDPGSGGQPAGPGAAGEALAVLTSFGRRLLVLIPVYLAGAVGLSVGFVLFGLALYLGWRRVRDEKERSLRAARQLLDDEEQLTAKTLYMSHRELPAWVSFPDVEKAEWLNKIVAQVWPFLGQYMEKLLAETVAPAVRGSNPHLQTFTFTRVELGEKPLRIIGVKVHPGQRKEQILLDLNISYVGDVQIDVEVKKYFCKAGVKGMQLHGVLRVILEPLIGDLPFVGAVSMFFIRRPTLDINWTGMTNLLDIPGLSSLSDTMIMDSIAAFLVLPNRLLVPLVPDLQDVAQLRSPLPRGIIRIHLLAARGLSSKDKYVKGLIEGKSDPYALVRLGTQTFCSRVIDEELNPQWGETYEVMVHEVPGQEIEVEVFDKDPDKDDFLGRMKLDVGKVLQASVLDDWFPLQGGQGQVHLRLEWLSLLSDAEKLEQVLQWNWGVSSRPDPPSAAILVVYLDRAQDLPLKKGNKEPNPMVQLSIQDVTQESKAVYSTNCPVWEEAFRFFLQDPQSQELDVQVKDDSRALTLGALTLPLARLLTAPELILDQWFQLSSSGPNSRLYMKLVMRILYLDSSEICFPTVPGCPGAWDVDSENPQRGSSVDAPPRPCHTTPDSQFGTEHVLRIHVLEAQDLIAKDRFLGGLVKGKSDPYVKLKLAGRSFRSHVVREDLNPRWNEVFEVIVTSVPGQELEVEVFDKDLDKDDFLGRCKVRLTTVLNSGFLDEWLTLEDVPSGRLHLRLERLTPRPTAAELEEVLQVNSLIQTQKSAELAAALLSIYMERAEDLPLRKGTKHLSPYATLTVGDSSHKTKTISQTSAPVWDESASFLIRKPHTESLELQVRGEGTGVLGSLSLPLSELLVADQLCLDRWFTLSSGQGQVLLRAQLGILVSQHSGVEAHSHSYSHSSSSLSEEPELSGGPPHITSSAPELRQRLTHVDSPLEAPAGPLGQVKLTLWYYSEERKLVSIVHGCRSLRQNGRDPPDPYVSLLLLPDKNRGTKRRTSQKKRTLSPEFNERFEWELPLDEAQRRKLDVSVKSNSSFMSRERELLGKVQLDLAETDLSQGVARWYDLMDNKDKGSS
B7: 2',3'-cyclic-nucleotide 3'-phosphodiesterase (protein, UniProt P09543 1-421)
chain: MNRGFSRKSHTFLPKIFFRKMSSSGAKDKPELQFPFLQDEDTVATLLECKTLFILRGLPGSGKSTLARVIVDKYRDGTKMVSADAYKITPGARGAFSEEYKRLDEDLAAYCRRRDIRILVLDDTNHERERLEQLFEMADQYQYQVVLVEPKTAWRLDCAQLKEKNQWQLSADDLKKLKPGLEKDFLPLYFGWFLTKKSSETLRKAGQVFLEELGNHKAFKKELRQFVPGDEPREKMDLVTYFGKRPPGVLHCTTKFCDYGKAPGAEEYAQQDVLKKSYSKAFTLTISALFVTPKTTGARVELSEQQLQLWPSDVDKLSPTDNLPRGSRAHITLGCAADVEAVQTGLDLLEILRQEKGGSRGEEVGELSRGKLYSLGNGRWMLTLAKNMEVRAIFTGYYGKGKPVPTQGSRKGGALQSCTII
B8: UBX domain-containing protein 6 (protein, UniProt Q9BZV1 1-441)
chain: MKKFFQEFKADIKFKSAGPGQKLKESVGEKAHKEKPNQPAPRPPRQGPTNEAQMAAAAALARLEQKQSRAWGPTSQDTIRNQVRKELQAEATVSGSPEAPGTNVVSEPREEGSAHLAVPGVYFTCPLTGATLRKDQRDACIKEAILLHFSTDPVAASIMKIYTFNKDQDRVKLGVDTIAKYLDNIHLHPEEEKYRKIKLQNKVFQERINCLEGTHEFFEAIGFQKVLLPAQDQEDPEEFYVLSETTLAQPQSLERHKEQLLAAEPVRAKLDRQRRVFQPSPLASQFELPGDFFNLTAEEIKREQRLRSEAVERLSVLRTKAMREKEEQRGLRKYNYTLLRVRLPDGCLLQGTFYARERLGAVYGFVREALQSDWLPFELLASGGQKLSEDENLALNECGLVPSALLTFSWDMAVLEDIKAAGAEPDSILKPELLSAIEKLL
B9: LIM and SH3 domain protein 1 (protein, UniProt Q14847 1-261)
chain: MNPNCARCGKIVYPTEKVNCLDKFWHKACFHCETCKMTLNMKNYKGYEKKPYCNAHYPKQSFTMVADTPENLRLKQQSELQSQVRYKEEFEKNKGKGFSVVADTPELQRIKKTQDQISNIKYHEEFEKSRMGPSGGEGMEPERRDSQDGSSYRRPLEQQQPHHIPTSAPVYQQPQQQPVAQSYGGYKEPAAPVSIQRSAPGGGGKRYRAVYDYSAADEDEVSFQDGDTIVNVQQIDDGWMYGTVERTGDTGMLPANYVEAI

Biological target: ALK tyrosine kinase receptor (human) (UniProt Q9UM73)
Experiment: affinity purification with mass spectrometry; HEK 293 Tet-On 3G cells crosslinked with 0.25% formaldehyde for 10 min, lysed; ALK-FLAG precipitated on anti-FLAG M2 agarose (4°C, 2 h), eluted with Flag peptide; label-free quantitation, Dox+ against Dox- cells, q < 0.05

binding, binds:
Paxillin (from UniProt P49023 1-591)
Annexin A2 (from UniProt P07355 1-339)
Amyloid-like protein 2 (from UniProt Q06481 32-763)
Receptor-type tyrosine-protein phosphatase F (from UniProt P10586 30-1907)
Tyrosine-protein phosphatase non-receptor type 11 (from UniProt Q06124 1-593) (enzyme)
Mitogen-activated protein kinase kinase kinase kinase 4 (from UniProt O95819 1-1239) (enzyme)
B1
B2
B3
B4
B5
B6
B7
B8
B9
